This is one part of the list.
Columns and labels:
Assay in all cases: log2 fold change, soluble protein after heating vs DMSO (PISA); higher = thermal stabilisation; K562 cells, 10 uM, 30 min; active = over 0.2 and 3.5 SD of the protein, either way, in both replicates (recomputed)
[1] = compound: CC[C@@H]1C(=O)N(C)c2cnc(Nc3ccc(C(=O)NC4CCN(C)CC4)cc3OC)nc2N1C1CCCC1
In short: (§1)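 Soluble protein was defined as the supernatant after 21,000xg for 90 min. It came from K562 cells at 2×10^6 cells/mL given 10 μM compound for 30 min, heated in aliquots for 3 min across 48°C-58°C, pooled, and extracted in PBS with 0.5% NP-40 at 4°C, and was quantified by TMTpro 16plex LC-MS/MS with equalised channel sums. Thermal stability against control samples, from duplicates, is reported as log2 fold change.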

The chains behind the UniProt entries cited, without tags or fusion partners. Where a name states a change or a piece, a line headed by the entry shows the natural chain unless it says otherwise.
UniProt Q14315, whole entry, looked up: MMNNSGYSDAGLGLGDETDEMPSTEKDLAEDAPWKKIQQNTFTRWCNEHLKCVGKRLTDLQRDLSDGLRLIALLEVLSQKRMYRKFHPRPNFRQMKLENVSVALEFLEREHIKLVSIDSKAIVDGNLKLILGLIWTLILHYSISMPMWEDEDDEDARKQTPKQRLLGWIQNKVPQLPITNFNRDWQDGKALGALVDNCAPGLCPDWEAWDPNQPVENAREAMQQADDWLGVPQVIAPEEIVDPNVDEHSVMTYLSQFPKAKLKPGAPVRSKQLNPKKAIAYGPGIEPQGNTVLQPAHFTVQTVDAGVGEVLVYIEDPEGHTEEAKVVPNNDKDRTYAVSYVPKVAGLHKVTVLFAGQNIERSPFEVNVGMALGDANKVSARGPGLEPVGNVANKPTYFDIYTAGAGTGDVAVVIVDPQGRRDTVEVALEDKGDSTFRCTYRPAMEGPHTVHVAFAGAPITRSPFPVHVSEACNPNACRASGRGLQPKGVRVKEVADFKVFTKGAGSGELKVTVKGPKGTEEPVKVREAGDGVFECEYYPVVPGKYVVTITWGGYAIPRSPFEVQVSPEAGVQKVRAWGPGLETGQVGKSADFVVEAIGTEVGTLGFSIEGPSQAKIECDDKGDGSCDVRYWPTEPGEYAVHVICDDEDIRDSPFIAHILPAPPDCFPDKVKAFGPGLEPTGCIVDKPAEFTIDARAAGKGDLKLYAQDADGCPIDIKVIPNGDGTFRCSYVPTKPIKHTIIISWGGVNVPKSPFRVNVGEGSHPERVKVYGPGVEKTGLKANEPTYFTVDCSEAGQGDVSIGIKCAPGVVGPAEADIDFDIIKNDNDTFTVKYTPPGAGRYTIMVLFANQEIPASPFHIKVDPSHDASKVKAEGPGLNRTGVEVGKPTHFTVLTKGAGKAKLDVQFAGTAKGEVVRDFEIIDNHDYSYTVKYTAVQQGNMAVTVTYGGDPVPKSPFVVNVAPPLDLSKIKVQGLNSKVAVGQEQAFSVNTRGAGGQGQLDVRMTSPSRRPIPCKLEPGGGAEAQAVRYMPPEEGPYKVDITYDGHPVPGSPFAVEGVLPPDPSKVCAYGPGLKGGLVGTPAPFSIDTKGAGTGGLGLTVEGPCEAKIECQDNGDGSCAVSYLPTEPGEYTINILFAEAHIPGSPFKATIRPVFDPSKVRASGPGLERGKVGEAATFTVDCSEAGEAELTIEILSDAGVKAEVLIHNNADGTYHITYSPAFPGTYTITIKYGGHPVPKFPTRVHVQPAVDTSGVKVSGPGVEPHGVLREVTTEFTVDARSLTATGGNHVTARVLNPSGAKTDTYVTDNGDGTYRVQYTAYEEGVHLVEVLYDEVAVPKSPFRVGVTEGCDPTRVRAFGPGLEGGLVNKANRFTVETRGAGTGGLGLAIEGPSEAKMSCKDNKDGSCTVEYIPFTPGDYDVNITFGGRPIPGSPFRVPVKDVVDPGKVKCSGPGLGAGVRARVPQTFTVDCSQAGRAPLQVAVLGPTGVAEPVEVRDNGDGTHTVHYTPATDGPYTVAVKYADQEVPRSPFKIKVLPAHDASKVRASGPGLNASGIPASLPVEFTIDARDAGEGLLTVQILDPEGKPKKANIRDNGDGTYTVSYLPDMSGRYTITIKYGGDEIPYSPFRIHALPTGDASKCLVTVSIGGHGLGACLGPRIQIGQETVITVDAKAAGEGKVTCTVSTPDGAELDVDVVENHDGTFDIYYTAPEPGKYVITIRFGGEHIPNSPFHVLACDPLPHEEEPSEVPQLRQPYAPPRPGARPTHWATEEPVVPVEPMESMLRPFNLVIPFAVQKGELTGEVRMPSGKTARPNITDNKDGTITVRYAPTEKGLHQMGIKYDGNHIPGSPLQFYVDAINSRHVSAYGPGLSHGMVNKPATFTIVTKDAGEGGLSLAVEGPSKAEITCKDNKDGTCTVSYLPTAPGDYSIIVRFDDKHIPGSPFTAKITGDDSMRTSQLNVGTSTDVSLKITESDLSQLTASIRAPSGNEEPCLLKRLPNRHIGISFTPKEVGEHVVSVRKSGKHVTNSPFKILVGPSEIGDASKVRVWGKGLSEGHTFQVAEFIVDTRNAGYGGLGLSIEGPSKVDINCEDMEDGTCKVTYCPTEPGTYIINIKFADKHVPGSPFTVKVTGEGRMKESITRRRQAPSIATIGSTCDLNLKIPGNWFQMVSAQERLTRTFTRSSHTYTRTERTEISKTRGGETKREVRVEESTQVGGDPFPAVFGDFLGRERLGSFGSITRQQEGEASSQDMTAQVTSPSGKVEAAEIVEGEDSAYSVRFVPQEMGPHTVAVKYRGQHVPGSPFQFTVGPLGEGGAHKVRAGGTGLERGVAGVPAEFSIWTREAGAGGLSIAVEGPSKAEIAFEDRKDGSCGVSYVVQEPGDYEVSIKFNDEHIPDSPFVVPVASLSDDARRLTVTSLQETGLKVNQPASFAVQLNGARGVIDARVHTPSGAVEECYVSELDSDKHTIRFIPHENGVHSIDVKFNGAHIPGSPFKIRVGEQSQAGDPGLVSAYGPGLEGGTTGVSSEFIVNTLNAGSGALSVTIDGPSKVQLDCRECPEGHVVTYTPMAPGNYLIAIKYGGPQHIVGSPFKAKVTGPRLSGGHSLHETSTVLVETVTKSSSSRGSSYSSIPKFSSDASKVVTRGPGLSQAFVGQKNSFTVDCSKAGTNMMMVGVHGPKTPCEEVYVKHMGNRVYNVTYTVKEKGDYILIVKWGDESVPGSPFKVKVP
UniProt Q9Y5Y0: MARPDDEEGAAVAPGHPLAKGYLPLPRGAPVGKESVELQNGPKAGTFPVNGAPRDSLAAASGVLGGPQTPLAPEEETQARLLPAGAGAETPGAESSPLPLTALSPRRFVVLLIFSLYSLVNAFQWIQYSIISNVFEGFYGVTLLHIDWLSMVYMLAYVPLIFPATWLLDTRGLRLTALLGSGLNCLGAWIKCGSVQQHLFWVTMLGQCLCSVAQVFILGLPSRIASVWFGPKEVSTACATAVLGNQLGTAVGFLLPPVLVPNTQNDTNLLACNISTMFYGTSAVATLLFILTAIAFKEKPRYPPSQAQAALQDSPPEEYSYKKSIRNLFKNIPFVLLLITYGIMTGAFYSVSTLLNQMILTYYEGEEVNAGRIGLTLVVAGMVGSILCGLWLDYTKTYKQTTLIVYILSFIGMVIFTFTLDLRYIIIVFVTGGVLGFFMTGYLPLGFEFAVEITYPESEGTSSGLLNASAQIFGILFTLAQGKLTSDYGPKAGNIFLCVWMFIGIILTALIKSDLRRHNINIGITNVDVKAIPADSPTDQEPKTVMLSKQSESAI
UniProt Q6P4F2: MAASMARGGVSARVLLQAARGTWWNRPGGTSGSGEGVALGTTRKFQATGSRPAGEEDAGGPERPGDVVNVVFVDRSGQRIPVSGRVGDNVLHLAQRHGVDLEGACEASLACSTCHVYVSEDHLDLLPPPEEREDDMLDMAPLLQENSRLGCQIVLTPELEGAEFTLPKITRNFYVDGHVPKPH
UniProt Q8NEZ5: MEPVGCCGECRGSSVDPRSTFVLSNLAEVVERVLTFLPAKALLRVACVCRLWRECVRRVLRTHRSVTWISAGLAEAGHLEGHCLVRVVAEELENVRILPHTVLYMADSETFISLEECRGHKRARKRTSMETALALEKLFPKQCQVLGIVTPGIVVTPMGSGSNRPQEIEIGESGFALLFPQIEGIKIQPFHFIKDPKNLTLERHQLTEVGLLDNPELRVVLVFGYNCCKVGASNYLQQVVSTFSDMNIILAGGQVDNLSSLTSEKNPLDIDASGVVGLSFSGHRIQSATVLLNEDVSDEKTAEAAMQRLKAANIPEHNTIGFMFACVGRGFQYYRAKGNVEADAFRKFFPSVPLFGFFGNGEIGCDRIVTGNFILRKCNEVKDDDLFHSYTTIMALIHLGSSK
UniProt P23142: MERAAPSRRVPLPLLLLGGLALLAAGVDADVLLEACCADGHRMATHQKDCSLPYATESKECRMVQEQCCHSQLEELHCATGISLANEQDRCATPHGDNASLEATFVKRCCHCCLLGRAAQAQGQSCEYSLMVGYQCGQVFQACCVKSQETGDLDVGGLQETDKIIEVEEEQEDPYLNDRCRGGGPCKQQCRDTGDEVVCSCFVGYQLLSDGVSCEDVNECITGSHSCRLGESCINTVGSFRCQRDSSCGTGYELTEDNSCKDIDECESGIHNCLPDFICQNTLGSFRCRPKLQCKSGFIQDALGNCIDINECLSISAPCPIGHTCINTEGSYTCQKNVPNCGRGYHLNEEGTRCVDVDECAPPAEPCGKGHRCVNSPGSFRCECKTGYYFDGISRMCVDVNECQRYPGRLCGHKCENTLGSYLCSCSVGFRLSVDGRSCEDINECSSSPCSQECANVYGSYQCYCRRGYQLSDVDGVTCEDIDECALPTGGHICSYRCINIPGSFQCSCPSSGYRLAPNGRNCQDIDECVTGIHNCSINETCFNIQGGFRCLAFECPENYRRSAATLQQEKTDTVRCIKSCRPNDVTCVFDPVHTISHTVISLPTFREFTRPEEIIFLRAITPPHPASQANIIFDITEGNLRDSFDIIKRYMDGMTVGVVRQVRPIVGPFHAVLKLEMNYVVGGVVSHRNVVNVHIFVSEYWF
UniProt Q14254: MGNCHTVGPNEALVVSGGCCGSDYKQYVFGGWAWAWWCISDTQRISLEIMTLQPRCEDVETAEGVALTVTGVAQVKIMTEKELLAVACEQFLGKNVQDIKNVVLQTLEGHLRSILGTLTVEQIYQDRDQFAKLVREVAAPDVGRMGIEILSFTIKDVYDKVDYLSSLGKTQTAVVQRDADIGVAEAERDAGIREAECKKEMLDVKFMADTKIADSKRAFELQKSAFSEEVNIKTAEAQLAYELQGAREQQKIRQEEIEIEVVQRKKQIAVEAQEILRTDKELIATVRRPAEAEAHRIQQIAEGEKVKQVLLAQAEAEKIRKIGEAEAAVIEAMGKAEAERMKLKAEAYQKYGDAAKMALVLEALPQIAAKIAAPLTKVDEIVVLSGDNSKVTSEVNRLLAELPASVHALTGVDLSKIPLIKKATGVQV
UniProt A6NHQ2: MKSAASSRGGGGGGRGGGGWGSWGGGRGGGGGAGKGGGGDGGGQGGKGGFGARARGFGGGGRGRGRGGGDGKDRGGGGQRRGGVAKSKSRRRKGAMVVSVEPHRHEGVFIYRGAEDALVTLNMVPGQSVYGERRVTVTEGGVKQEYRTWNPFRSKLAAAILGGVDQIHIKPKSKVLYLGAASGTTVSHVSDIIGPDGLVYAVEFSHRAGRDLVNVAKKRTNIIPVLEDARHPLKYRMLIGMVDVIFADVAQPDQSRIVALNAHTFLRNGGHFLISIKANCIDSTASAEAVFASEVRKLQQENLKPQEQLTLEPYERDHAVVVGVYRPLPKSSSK
UniProt Q96ME1: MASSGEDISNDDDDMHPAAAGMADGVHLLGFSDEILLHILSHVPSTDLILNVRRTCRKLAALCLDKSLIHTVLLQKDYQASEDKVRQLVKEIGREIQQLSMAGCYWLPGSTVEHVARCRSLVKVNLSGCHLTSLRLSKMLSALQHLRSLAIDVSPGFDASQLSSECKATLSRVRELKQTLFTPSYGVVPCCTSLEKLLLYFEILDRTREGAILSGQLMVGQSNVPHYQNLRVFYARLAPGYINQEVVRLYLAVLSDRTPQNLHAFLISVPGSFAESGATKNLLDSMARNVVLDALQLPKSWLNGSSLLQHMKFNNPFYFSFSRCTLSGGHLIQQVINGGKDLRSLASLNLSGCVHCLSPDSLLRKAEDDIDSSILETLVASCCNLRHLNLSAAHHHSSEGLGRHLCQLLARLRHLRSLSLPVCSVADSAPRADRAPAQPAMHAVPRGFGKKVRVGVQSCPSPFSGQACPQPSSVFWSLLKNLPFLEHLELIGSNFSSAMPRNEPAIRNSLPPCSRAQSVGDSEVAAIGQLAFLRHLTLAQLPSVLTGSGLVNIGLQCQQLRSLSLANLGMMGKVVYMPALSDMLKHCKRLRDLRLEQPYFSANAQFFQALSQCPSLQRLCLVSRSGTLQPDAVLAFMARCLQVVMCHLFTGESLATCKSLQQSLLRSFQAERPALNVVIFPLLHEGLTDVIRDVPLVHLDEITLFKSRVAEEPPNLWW
UniProt Q9UKT5: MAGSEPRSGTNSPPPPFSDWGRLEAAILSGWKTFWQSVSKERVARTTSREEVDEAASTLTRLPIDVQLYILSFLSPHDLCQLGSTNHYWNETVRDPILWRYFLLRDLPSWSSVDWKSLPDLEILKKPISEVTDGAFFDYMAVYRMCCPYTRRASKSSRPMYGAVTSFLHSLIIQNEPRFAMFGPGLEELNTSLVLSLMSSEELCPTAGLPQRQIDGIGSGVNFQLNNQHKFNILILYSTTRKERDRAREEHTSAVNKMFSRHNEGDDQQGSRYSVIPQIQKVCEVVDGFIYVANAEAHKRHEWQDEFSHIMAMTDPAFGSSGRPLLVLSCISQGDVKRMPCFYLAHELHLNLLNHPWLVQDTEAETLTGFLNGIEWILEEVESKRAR
UniProt P26885: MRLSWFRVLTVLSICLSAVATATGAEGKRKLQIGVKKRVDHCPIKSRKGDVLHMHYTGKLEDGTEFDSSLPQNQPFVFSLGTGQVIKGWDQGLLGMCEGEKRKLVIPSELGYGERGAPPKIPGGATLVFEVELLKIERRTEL

[2] = compound: CC[C@@H]1C(=O)N(C)c2cnc(Nc3ccc(C(=O)N[C@H]4CC[C@H](N5CCN(CC6CC6)CC5)CC4)cc3OC)nc2N1C(C)C [volasertib]
In short: as §1

[3] = compound: CC[C@H](C)N1C=C(C2=C(C=C(C=C21)C3=CN=C(C=C3)N4CCNCC4)C(=O)NCC5=C(C=C(NC5=O)C)C)C
In short: as §1

[4] = compound: CC[C@H](C)[C@@H](C(=O)N[C@@H]([C@@H](C)O)C(=O)N[C@@H](CC(C)C)C(=O)[C@]1(CO1)C)NC(=O)[C@H]([C@@H](C)CC)N(C)C(=O)C [epoxomicin]
In short: as §1

[5] = compound: CCn1c(C(=O)N(C2CC2)C2CC2)cc2c3c(ncn3C)c(Nc3cc(C)n(C)n3)nc21
In short: as §1

[6] = compound: CCn1cc(-c2ccnc3[nH]c(-c4cccc(CN(C)C)c4)cc23)c(-c2ccc(NC(=O)N(C)C)cc2)n1
In short: as §1

[7] = compound: CN(C)CC(=O)Nc1ccc2[nH]c(=O)c3ccccc3c2c1
In short: as §1

[8] = compound: CN(CCOC1=CC=C(C=C1)C[C@H]2C(=O)NC(=O)S2)C3=CC=CC=N3 (racemic) [rosiglitazone]
In short: as §1

[9] = compound: CN1C2=C(C3=C1C(=O)N(N=C3)CC4=CC(=CC=C4)N)SC(=C2)S(=O)C
In short: as §1

[10] = compound: CN1CCC(CNc2ccc3ncc(-c4cccc(OC(F)(F)F)c4)n3n2)CC1
In short: as §1

[11] = compound: CN1CCN(CCOc2cc(OC3CCOCC3)c3c(Nc4c(Cl)ccc5c4OCO5)ncnc3c2)CC1 [saracatinib]
In short: as §1

[12] = compound: CN1CCN(c2nc(C3=C(c4c[nH]c5ccccc45)C(=O)NC3=O)c3ccccc3n2)CC1 [sotrastaurin]
In short: as §1

[13] = compound: CN1CC[C@H](c2c(O)cc(O)c3c(=O)cc(-c4ccccc4Cl)oc23)[C@H](O)C1 [alvocidib]
In short: as §1

[14] = compound: CN1CCc2c(c3ccccc3n2Cc2ccc(C(=O)NO)cc2)C1 [Tubastatin A]
In short: as §1

[15] = compound: CNC(=O)C1=CC=CC=C1NC2=NC(=NC=C2Cl)NC3=C(C=C(C=C3)N4CCOCC4)OC
In short: as §1

[16] = compound: CNC(=O)c1ccc(Nc2ncc(C(F)(F)F)c(NCc3nccnc3N(C)S(C)(=O)=O)n2)cc1 [defactinib]
In short: as §1

[17] = compound: CNCc1ccc(-c2[nH]c3cc(F)cc4c3c2CCNC4=O)cc1 [rucaparib]
In short: as §1

[18] = compound: CNc1nc(-c2ccc3c(N)n[nH]c3c2)cc(N2C[C@@H](C(=O)NC3CCCCC3)CC[C@H]2C)n1
In short: as §1

[19] = compound: COC(=O)N[C@@H](C)CNc1nccc(-c2cn(C(C)C)nc2-c2cc(Cl)cc(NS(C)(=O)=O)c2F)n1 [encorafenib]
In short: as §1

[20] = compound: COC(=O)[C@H](CCSC)NC(=O)C1=C(C=C(C=C1)NC[C@H](CS)N)C2=CC=CC=C2
In short: as §1

Measured: log2 fold change

FLNC (UniProt Q14315)
inactive: [1] -0.022 | [2] -0.063 | [3] 0.017 | [4] -0.011 | [5] -0.01 | [6] -0.023 | [7] -0.002 | [8] 0.025 | [9] -0.037 | [10] -0.005 | [11] 0.003 | [12] -0.018 | [13] -0.024 | [14] -0.02 | [15] 0.05 | [16] -0.012 | [17] 0 | [18] -0.021 | [19] 0.004 | [20] -0.011

FLVCR1 (UniProt Q9Y5Y0)
inactive: [1] 0.12 | [2] 0.064 | [3] -0.009 | [4] -0.141 | [5] 0.051 | [6] -0.001 | [7] -0.061 | [8] -0.023 | [9] -0.076 | [10] 0.179 | [11] 0.113 | [12] 0.019 | [13] 0.013 | [14] -0.018 | [15] -0.03 | [16] -0.072 | [17] 0.054 | [18] 0.013 | [19] -0.12 | [20] 0.067

FDX2 (UniProt Q6P4F2)
inactive: [1] -0.168 | [2] 0.056 | [3] -0.075 | [4] -0.088 | [5] -0.052 | [6] 0.005 | [7] 0.095 | [8] -0.022 | [9] 0.034 | [10] 0.113 | [11] -0.059 | [12] 0.063 | [13] -0.003 | [14] 0.002 | [15] -0.007 | [16] 0.006 | [17] 0.021 | [18] 0.058 | [19] 0.133 | [20] 0.11

FBXO22 (UniProt Q8NEZ5)
inactive: [1] -0.034 | [2] -0.106 | [3] 0.072 | [4] 0.072 | [5] -0.04 | [6] -0.06 | [7] 0.047 | [8] -0.018 | [9] 0.063 | [10] 0.013 | [11] 0.032 | [12] -0.03 | [13] -0.074 | [14] 0.001 | [15] -0.099 | [16] -0.056 | [17] 0.038 | [18] -0.019 | [19] 0.009 | [20] -0.043

FAU (UniProt P62861)
inactive: [1] 0.227 | [2] 0.341 | [3] -0.001 | [4] -0.295 | [5] 0.006 | [6] 0.166 | [7] -0.154 | [8] -0.105 | [9] 0.308 | [10] 0.198 | [11] -0.079 | [12] 0 | [13] 0.238 | [14] 0.087 | [15] 0.072 | [16] 0.204 | [17] 0.307 | [18] 0.129 | [19] 0.102 | [20] 0.058

FEM1B (UniProt Q9UK73)
inactive: [1] -0.01 | [2] 0.051 | [3] -0.03 | [4] 0.122 | [5] -0.014 | [6] 0.103 | [7] -0.044 | [8] 0.012 | [9] -0.026 | [10] -0.058 | [11] 0.015 | [12] 0.002 | [13] 0.014 | [14] 0.094 | [15] -0.074 | [16] 0.001 | [17] 0 | [18] -0.031 | [19] 0.082 | [20] 0.007

FKBP8 isoform 2 (UniProt Q14318)
inactive: [1] -0.052 | [2] -0.294 | [3] 0.049 | [4] -0.121 | [5] -0.05 | [6] 0.018 | [7] 0.015 | [8] 0.003 | [9] 0.2 | [10] -0.085 | [11] -0.126 | [12] -0.236 | [13] 0.105 | [14] 0.066 | [15] 0 | [16] 0.051 | [17] 0.279 | [18] 0.093 | [19] 0.188 | [20] -0.099

FBLN1 (UniProt P23142)
inactive: [1] -0.022 | [2] 0.059 | [3] -0.112 | [4] -0.223 | [5] 0.094 | [6] 0.055 | [7] -0.119 | [8] -0.003 | [9] 0.339 | [10] 0.066 | [11] 0.233 | [12] 0.157 | [13] 0.148 | [14] -0.147 | [15] 0.062 | [16] -0.086 | [17] -0.085 | [18] 0.118 | [19] 0.047 | [20] 0.129

FKBP15 (UniProt Q5T1M5)
inactive: [1] 0.043 | [2] -0.201 | [3] 0.044 | [4] 0.012 | [5] -0.114 | [6] -0.018 | [7] 0.026 | [8] 0.072 | [9] 0.091 | [10] -0.006 | [11] -0.024 | [12] -0.152 | [13] -0.058 | [14] 0.054 | [15] -0.111 | [16] -0.035 | [17] 0.018 | [18] 0.089 | [19] 0.045 | [20] -0.062

FLOT2 (UniProt Q14254)
inactive: [1] 0.111 | [2] 0.175 | [3] -0.025 | [4] 0.091 | [5] -0.018 | [6] 0.144 | [7] 0.079 | [8] -0.07 | [9] 0.248 | [10] 0.404 | [11] -0.163 | [12] -0.084 | [13] 0.14 | [14] 0.125 | [15] -0.045 | [16] 0.106 | [17] 0.209 | [18] 0.073 | [19] 0.186 | [20] -0.095

FGF2 (UniProt P09038)
inactive: [1] 0.042 | [2] 0.024 | [3] -0.038 | [4] -0.093 | [5] -0.051 | [6] -0.127 | [7] 0.031 | [8] -0.064 | [9] -0.076 | [10] 0.149 | [11] 0.09 | [12] 0.092 | [13] 0.034 | [14] 0.019 | [15] -0.093 | [16] 0.024 | [17] 0.094 | [18] 0.015 | [19] -0.025 | [20] 0.034

FBLL1 (UniProt A6NHQ2)
inactive: [1] 0.229 | [2] 0.083 | [3] -0.037 | [4] -0.119 | [5] 0.044 | [6] 0.26 | [7] -0.119 | [8] -0.179 | [9] 0.346 | [10] 0.508 | [11] -0.001 | [12] -0.039 | [13] 0.15 | [14] -0.001 | [15] -0.182 | [16] 0.261 | [17] 0.447 | [18] 0.021 | [19] 0.079 | [20] -0.13

3 consecutive records out of the list so far:
FKBP15 (UniProt Q5T1M5)
inactive: [1] 0.043 | [2] -0.201 | [3] 0.044 | [4] 0.012 | [5] -0.114 | [6] -0.018 | [7] 0.026 | [8] 0.072 | [9] 0.091 | [10] -0.006 | [11] -0.024 | [12] -0.152 | [13] -0.058 | [14] 0.054 | [15] -0.111 | [16] -0.035 | [17] 0.018 | [18] 0.089 | [19] 0.045 | [20] -0.062

FLOT2 (UniProt Q14254)
inactive: [1] 0.111 | [2] 0.175 | [3] -0.025 | [4] 0.091 | [5] -0.018 | [6] 0.144 | [7] 0.079 | [8] -0.07 | [9] 0.248 | [10] 0.404 | [11] -0.163 | [12] -0.084 | [13] 0.14 | [14] 0.125 | [15] -0.045 | [16] 0.106 | [17] 0.209 | [18] 0.073 | [19] 0.186 | [20] -0.095

FGF2 (UniProt P09038)
inactive: [1] 0.042 | [2] 0.024 | [3] -0.038 | [4] -0.093 | [5] -0.051 | [6] -0.127 | [7] 0.031 | [8] -0.064 | [9] -0.076 | [10] 0.149 | [11] 0.09 | [12] 0.092 | [13] 0.034 | [14] 0.019 | [15] -0.093 | [16] 0.024 | [17] 0.094 | [18] 0.015 | [19] -0.025 | [20] 0.034

Next records follow:

FBXL18 isoform 4 (UniProt Q96ME1)
inactive: [1] -0.013 | [2] -0.066 | [3] 0.025 | [4] 0.049 | [5] -0.027 | [6] -0.075 | [7] 0.022 | [8] 0.006 | [9] -0.045 | [10] -0.017 | [11] 0.014 | [12] -0.039 | [13] -0.015 | [14] -0.033 | [15] -0.002 | [16] -0.077 | [17] -0.035 | [18] -0.031 | [19] -0.013 | [20] -0.028

FBXO4 (UniProt Q9UKT5)
inactive: [1] -0.099 | [2] -0.189 | [3] 0.045 | [4] -0.054 | [5] -0.004 | [6] -0.123 | [7] 0.022 | [8] 0.007 | [9] -0.051 | [10] -0.093 | [11] 0.007 | [12] -0.08 | [13] -0.107 | [14] -0.037 | [15] 0.006 | [16] -0.104 | [17] 0.015 | [18] 0.045 | [19] -0.034 | [20] 0.037

FAM98B (UniProt Q52LJ0)
inactive: [1] 0.04 | [2] -0.019 | [3] 0.043 | [4] -0.008 | [5] -0.048 | [6] 0.022 | [7] 0.044 | [8] 0.038 | [9] 0.04 | [10] 0.045 | [11] -0.062 | [12] -0.048 | [13] -0.002 | [14] 0.064 | [15] 0.035 | [16] 0.115 | [17] 0.087 | [18] 0.117 | [19] 0.048 | [20] -0.113

FKBP2 (UniProt P26885)
inactive: [1] -0.02 | [2] 0.01 | [3] -0.012 | [4] -0.017 | [5] 0.047 | [6] -0.058 | [7] -0.026 | [8] -0.022 | [9] -0.043 | [10] -0.017 | [11] -0.047 | [12] -0.029 | [13] -0.06 | [14] -0.033 | [15] 0.058 | [16] 0.006 | [17] 0.032 | [18] -0.009 | [19] 0.011 | [20] 0.013

Source: the supplement of paper PMC10849652
